Construct, isoform or probe ends are uncertain for at least one entry. For part of these data: A negative result means that nothing was seen under these conditions. For part of these data: A weaker result is weaker than the reference pair of the same experiment. For part of these data: Protein sequences can lack the tags named with them.
Key:
[1] = test system: PhrR (Halomonas); assay: fluorescence polarization; details: negative control; FP: Tris pH 7.5, 0.1 M NaCl, 10 mM MgSO4, 5 mg/ml sperm DNA, 10 mM urea, labeled DNA (10 nM and 1 uM both stated), 0-1.5 uM PtrR, 0-0.6 mM GABA, 1 h at 30 C; recombinant protein
[2] = target: T1, PtrR (YneJ) (Escherichia coli K-12 (ASKA collection)) (UniProt P77309); assay: fluorescence polarization; details: FP: Tris pH 7.5, 0.1 M NaCl, 10 mM MgSO4, 5 mg/ml sperm DNA, 10 mM urea, labeled DNA (10 nM and 1 uM both stated), 0-1.5 uM PtrR, 0-0.6 mM GABA, 1 h at 30 C, recombinant protein
T1 sequence (looked up, limits assumed): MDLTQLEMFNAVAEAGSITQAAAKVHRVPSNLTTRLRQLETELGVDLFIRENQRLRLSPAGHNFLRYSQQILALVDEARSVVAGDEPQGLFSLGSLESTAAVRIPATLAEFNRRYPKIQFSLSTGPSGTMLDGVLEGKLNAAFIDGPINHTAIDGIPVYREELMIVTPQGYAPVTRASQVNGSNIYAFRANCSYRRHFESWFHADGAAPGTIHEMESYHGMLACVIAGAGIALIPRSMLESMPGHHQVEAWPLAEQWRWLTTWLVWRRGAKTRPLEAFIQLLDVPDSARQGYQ

“GGGTTCTCGATTCGTGAAGGG (double strand) [sad (yneI) operator fragment]”: no binding [1]; binds more weakly ([2]; GABA (0-0.6 mM) leads to dissociation); binds ([2]; no GABA, specific binding detected at 0.6 uM PtrR).

— PMC9068703
